{"source": "paper doi:10.1101/810192", "target": "T1, Stimulator of interferon genes (STING) (mouse (endogenous in BMDC)) (UniProt Q3TBT3)", "T1 sequence": "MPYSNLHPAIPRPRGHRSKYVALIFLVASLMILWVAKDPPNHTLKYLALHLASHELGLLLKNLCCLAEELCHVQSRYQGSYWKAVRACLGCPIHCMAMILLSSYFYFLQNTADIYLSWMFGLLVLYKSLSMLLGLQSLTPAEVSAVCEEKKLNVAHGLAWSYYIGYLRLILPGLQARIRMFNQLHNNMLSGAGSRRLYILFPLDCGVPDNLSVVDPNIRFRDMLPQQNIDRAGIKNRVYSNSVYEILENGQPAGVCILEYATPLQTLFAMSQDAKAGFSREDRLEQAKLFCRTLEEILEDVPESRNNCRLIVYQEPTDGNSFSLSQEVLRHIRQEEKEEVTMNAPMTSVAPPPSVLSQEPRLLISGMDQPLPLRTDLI", "assay": "affinity purification with mass spectrometry", "note": "Results are given in words; binding and its absence hold for the method and conditions named. In cells and extracts the contact can be indirect. Here binding means that the protein was enriched with, or labelled near, the bait; the list need not be complete."}
{"substance": "LYN, a member of Src family kinases (from UniProt P25911-1 1-512)", "values": [{"measurement": "binding", "value": "binds"}]}
